Results are given in words; binding and its absence hold for the method and conditions named. In cells and extracts the contact can be indirect. Some entries that bind do so weakly or less than the wild type.
Target: wild-type GFP-tagged human MRCKα (MRCKα-wt-GFP) (human) (UniProt Q5VT25)
Assay: co-IP; HEK-293 cells co-transfected with ABCB4 and the GFP-tagged partner; lysis in 25 mmol/L Tris pH 7.4, 150 mmol/L NaCl, 1 mmol/L EDTA, 1% Triton X-100; anti-GFP or normal mouse IgG on beads, overnight at 4 °C; blot with anti-ABCB4

By UniProt entry, the sequences of proteins in these tests, tags left out. Where a name states a change or a piece, a line headed by the entry shows the natural chain unless it says otherwise. Chains listed by the source or under a name are the forms on record and can include a tag or linker.
UniProt Q5VT25: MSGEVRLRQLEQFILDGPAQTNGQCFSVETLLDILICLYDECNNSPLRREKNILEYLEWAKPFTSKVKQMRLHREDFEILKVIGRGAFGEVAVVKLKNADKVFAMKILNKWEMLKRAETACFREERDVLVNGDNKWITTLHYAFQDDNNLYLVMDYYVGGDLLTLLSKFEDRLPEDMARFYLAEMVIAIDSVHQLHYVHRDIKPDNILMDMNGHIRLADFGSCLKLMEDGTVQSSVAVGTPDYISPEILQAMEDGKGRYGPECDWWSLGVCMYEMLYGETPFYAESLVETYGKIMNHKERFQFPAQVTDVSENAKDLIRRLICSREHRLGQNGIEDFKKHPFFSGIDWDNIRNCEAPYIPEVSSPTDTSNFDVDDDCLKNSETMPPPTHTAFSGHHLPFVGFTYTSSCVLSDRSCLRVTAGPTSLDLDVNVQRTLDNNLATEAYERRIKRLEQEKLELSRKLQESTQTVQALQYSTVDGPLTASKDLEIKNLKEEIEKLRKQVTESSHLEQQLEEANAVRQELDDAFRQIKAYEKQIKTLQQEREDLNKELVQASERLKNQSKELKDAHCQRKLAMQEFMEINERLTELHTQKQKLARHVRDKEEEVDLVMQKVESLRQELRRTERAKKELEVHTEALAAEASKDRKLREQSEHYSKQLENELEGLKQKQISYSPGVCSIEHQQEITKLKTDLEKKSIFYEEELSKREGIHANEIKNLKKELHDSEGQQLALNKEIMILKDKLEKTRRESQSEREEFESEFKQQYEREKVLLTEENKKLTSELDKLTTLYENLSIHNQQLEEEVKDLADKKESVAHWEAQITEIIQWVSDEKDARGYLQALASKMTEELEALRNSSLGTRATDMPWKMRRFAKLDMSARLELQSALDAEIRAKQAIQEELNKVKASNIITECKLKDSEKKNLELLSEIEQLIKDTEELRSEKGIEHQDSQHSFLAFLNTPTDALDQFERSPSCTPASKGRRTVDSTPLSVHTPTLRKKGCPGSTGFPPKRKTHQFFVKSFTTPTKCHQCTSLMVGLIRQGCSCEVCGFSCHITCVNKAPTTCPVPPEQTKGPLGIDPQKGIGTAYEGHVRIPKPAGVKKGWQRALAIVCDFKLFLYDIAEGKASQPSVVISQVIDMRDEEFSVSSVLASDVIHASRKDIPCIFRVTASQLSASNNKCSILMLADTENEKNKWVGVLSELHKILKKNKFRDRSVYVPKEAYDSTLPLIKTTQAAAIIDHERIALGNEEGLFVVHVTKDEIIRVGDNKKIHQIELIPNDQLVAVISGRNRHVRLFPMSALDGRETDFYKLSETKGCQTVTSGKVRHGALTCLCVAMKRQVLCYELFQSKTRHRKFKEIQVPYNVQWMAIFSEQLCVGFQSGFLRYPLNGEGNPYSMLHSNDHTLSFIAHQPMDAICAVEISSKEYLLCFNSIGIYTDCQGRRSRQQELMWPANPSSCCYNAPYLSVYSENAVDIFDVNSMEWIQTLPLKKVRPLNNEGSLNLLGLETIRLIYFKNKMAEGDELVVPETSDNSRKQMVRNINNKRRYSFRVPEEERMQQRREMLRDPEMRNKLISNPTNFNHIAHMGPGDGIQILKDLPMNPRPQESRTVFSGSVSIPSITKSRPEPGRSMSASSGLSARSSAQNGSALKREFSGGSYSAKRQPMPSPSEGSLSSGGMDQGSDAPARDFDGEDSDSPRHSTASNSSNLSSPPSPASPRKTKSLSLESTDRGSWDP
human wild type ABCB4 (ABCB4-wt) isoform A (P21439-2, form named): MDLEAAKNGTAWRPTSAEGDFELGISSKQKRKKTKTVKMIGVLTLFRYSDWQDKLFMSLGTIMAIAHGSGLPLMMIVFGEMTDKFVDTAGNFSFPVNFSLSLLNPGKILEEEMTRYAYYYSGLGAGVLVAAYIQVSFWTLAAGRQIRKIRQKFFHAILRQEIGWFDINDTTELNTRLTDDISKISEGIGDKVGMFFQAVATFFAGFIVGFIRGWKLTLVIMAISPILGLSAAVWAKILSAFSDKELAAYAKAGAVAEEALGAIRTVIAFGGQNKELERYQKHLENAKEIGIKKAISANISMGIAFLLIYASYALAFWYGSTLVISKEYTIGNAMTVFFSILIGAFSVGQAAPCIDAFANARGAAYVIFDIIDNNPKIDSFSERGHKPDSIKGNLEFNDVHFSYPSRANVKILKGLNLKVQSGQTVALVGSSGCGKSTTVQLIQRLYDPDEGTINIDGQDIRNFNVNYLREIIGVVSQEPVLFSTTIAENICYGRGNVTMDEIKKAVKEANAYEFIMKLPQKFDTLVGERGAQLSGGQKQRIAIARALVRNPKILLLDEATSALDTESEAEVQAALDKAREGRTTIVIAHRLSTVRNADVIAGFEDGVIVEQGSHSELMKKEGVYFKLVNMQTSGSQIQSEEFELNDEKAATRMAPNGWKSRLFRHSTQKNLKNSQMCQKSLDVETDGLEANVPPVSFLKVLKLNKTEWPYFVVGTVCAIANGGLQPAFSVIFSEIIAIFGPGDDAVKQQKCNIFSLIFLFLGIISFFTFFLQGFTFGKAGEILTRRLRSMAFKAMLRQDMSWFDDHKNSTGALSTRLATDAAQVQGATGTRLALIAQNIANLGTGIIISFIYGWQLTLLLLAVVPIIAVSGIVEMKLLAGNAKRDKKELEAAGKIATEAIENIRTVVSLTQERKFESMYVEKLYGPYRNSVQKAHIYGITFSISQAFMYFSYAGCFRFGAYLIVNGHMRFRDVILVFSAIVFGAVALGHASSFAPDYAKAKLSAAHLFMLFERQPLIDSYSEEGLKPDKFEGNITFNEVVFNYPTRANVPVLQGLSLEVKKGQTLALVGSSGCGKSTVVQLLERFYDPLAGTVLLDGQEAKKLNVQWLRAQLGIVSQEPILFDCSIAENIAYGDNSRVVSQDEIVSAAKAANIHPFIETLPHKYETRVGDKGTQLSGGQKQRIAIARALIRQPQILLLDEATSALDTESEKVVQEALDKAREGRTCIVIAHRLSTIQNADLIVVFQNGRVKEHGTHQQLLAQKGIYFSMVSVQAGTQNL

binding: binds
Substance: human wild type ABCB4 (ABCB4-wt) isoform A (from UniProt P21439-2 1-1279)
